Laboratory results from paper PMC11374673, “Discovery of isoquinoline sulfonamides as allosteric gyrase inhibitors with activity against fluoroquinolone-resistant bacteria” (Nature Chemistry, 2024).
Values joined by “and” are separate entries in the source; they are usually repeats but may differ in a detail not shown here. Identical values can stand only once. Further values from the same series stand in other lists.

How the values were obtained:
E. coli = assay: Checkerboard assay LEI-800 with CIP; assay type: cell-based, Escherichia coli;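 note: bacterial growth read as OD600 after 20 h at 37 °C with shaking, each drug pair tested in triplicate wells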
E. coli W3110 = assay: Checkerboard assay with PMBN;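 note: OD600 read after 20 h incubation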
[1] = Ciprofloxacin 0.78125 nM + PMBN 0 µM
[2] = Ciprofloxacin 0.78125 nM + PMBN 0.5 µM
[3] = Ciprofloxacin 0.78125 nM + PMBN 1 µM
[4] = Ciprofloxacin 0.78125 nM + PMBN 2 µM
[5] = Ciprofloxacin 0.78125 nM + PMBN 4 µM
[6] = Ciprofloxacin 0.78125 nM + PMBN 8 µM
[7] = Ciprofloxacin 0.78125 nM + PMBN 16 µM
[8] = Ciprofloxacin 0.78125 nM + PMBN 32 µM
[9] = Ciprofloxacin 1.5625 nM + PMBN 0 µM
[10] = Ciprofloxacin 1.5625 nM + PMBN 0.5 µM
[11] = Ciprofloxacin 1.5625 nM + PMBN 16 µM
[12] = Ciprofloxacin 1.5625 nM + PMBN 32 µM

`O=C(O)c1cn(C2CC2)c2cc(N3CCNCC3)c(F)cc2c1=O` [CIP, ciprofloxacin, reference compound] was tested, and the “checkerboard plate reading, replicate wells” value (E. coli; Ciprofloxacin 3.125 nM + LEI-800 0 µM) was 0.8619 and 0.7974 and 0.7155, the “checkerboard plate reading, replicate wells” value (E. coli; Ciprofloxacin 3.125 nM + LEI-800 0.1 µM) was 0.6658 and 0.7673 and 0.8284 and the “checkerboard plate reading, replicate wells” value (E. coli; Ciprofloxacin 3.125 nM + LEI-800 0.2 µM) was 0.6992 and 0.6309 and 0.75. For the same molecule, the “checkerboard plate reading, replicate wells” value (E. coli; Ciprofloxacin 3.125 nM + LEI-800 0.4 µM) was 0.6077 and 0.6127 and 0.6589, the “checkerboard plate reading, replicate wells” value (E. coli; Ciprofloxacin 3.125 nM + LEI-800 0.8 µM) was 0.6013 and 0.5989 and 0.5487 and the “checkerboard plate reading, replicate wells” value (E. coli; Ciprofloxacin 3.125 nM + LEI-800 3.1 µM) was 0.2711 and 0.2599 and 0.2829. For the same molecule, the “checkerboard plate reading, replicate wells” value (E. coli; Ciprofloxacin 3.125 nM + LEI-800 6.2 µM) was 0.1396 and 0.1415 and 0.1422, the “checkerboard plate reading, replicate wells” value (E. coli; Ciprofloxacin 6.25 nM + LEI-800 0 µM) was 0.8794 and 0.78 and 0.7521 and the “checkerboard plate reading, replicate wells” value (E. coli; Ciprofloxacin 6.25 nM + LEI-800 0.1 µM) was 0.7218 and 0.6826 and 0.6655. For the same molecule, the “checkerboard plate reading, replicate wells” value (E. coli; Ciprofloxacin 6.25 nM + LEI-800 0.2 µM) was 0.6387 and 0.609 and 0.6296, the “checkerboard plate reading, replicate wells” value (E. coli; Ciprofloxacin 6.25 nM + LEI-800 0.4 µM) was 0.6391 and 0.6496 and 0.6659 and the “checkerboard plate reading, replicate wells” value (E. coli; Ciprofloxacin 6.25 nM + LEI-800 0.8 µM) was 0.6019 and 0.5603 and 0.5569. For the same molecule, the “checkerboard plate reading, replicate wells” value (E. coli; Ciprofloxacin 6.25 nM + LEI-800 3.1 µM) was 0.2628 and 0.3171 and 0.2725, the “checkerboard plate reading, replicate wells” value (E. coli; Ciprofloxacin 6.25 nM + LEI-800 6.2 µM) was 0.1627 and 0.1452 and 0.1544 and the “checkerboard plate reading, replicate wells” value (E. coli; Ciprofloxacin 12.5 nM + LEI-800 0 µM) was 0.8456 and 0.8481 and 0.756. For the same molecule, the “checkerboard plate reading, replicate wells” value (E. coli; Ciprofloxacin 12.5 nM + LEI-800 0.1 µM) was 0.6961 and 0.6864 and 0.6843, the “checkerboard plate reading, replicate wells” value (E. coli; Ciprofloxacin 12.5 nM + LEI-800 0.2 µM) was 0.6231 and 0.6423 and the “checkerboard plate reading, replicate wells” value (E. coli; Ciprofloxacin 12.5 nM + LEI-800 0.8 µM) was 0.6408 and 0.6065 and 0.5671. For the same molecule, the “checkerboard plate reading, replicate wells” value (E. coli; Ciprofloxacin 12.5 nM + LEI-800 3.1 µM) was 0.2892 and 0.2347 and 0.2421, the “checkerboard plate reading, replicate wells” value (E. coli; Ciprofloxacin 12.5 nM + LEI-800 6.2 µM) was 0.1324 and 0.1416 and 0.1522 and the “checkerboard plate reading, Average values” (E. coli W3110; [1]) was 0.957. The “checkerboard plate reading, replicate wells” value (E. coli W3110; [1]) was 0.9367 and 0.9639 and 0.9706, the “checkerboard plate reading, Average values” (E. coli W3110; [2]) was 0.9715 and the “checkerboard plate reading, replicate wells” value (E. coli W3110; [2]) was 0.9788 and 0.9845 and 0.9512. For the same molecule, the “checkerboard plate reading, Average values” (E. coli W3110; [3]) was 0.9356, the “checkerboard plate reading, replicate wells” value (E. coli W3110; [3]) was 1.0018 and 0.8473 and 0.9577 and the “checkerboard plate reading, Average values” (E. coli W3110; [4]) was 0.8703. The “checkerboard plate reading, replicate wells” value (E. coli W3110; [4]) was 0.8441 and 0.8423 and 0.9244, the “checkerboard plate reading, Average values” (E. coli W3110; [5]) was 0.7438 and the “checkerboard plate reading, replicate wells” value (E. coli W3110; [5]) was 0.7558 and 0.7462 and 0.7295. For the same molecule, the “checkerboard plate reading, Average values” (E. coli W3110; [6]) was 0.6726, the “checkerboard plate reading, replicate wells” value (E. coli W3110; [6]) was 0.7607 and 0.6104 and 0.6467 and the “checkerboard plate reading, Average values” (E. coli W3110; [7]) was 0.6456. For the same molecule, the “checkerboard plate reading, replicate wells” value (E. coli W3110; [7]) was 0.7065 and 0.5703 and 0.66, the “checkerboard plate reading, Average values” (E. coli W3110; [8]) was 0.7735 and the “checkerboard plate reading, replicate wells” value (E. coli W3110; [8]) was 0.7014 and 0.734 and 0.885. The “checkerboard plate reading, Average values” (E. coli W3110; [9]) was 0.9523, the “checkerboard plate reading, replicate wells” value (E. coli W3110; [9]) was 0.9687 and 0.952 and 0.9362 and the “checkerboard plate reading, Average values” (E. coli W3110; [10]) was 0.8825. The “checkerboard plate reading, replicate wells” value (E. coli W3110; [10]) was 0.8916 and 0.852 and 0.9039, the “checkerboard plate reading, replicate wells” value (E. coli W3110; Ciprofloxacin 1.5625 nM + PMBN 1 µM) was 0.8788 and 0.9051 and 0.888 and the “checkerboard plate reading, replicate wells” value (E. coli W3110; Ciprofloxacin 1.5625 nM + PMBN 2 µM) was 0.8967 and 0.8865 and 0.8902. For the same molecule, the “checkerboard plate reading, replicate wells” value (E. coli W3110; Ciprofloxacin 1.5625 nM + PMBN 4 µM) was 0.7453 and 0.7124 and 0.7204, the “checkerboard plate reading, replicate wells” value (E. coli W3110; Ciprofloxacin 1.5625 nM + PMBN 8 µM) was 0.6289 and 0.6252 and 0.6368 and the “checkerboard plate reading, Average values” (E. coli W3110; [11]) was 0.7074. The “checkerboard plate reading, replicate wells” value (E. coli W3110; [11]) was 0.7012 and 0.659 and 0.7621, the “checkerboard plate reading, Average values” (E. coli W3110; [12]) was 0.6964 and the “checkerboard plate reading, replicate wells” value (E. coli W3110; [12]) was 0.6775 and 0.7178 and 0.694. For the same molecule, the “checkerboard plate reading, replicate wells” value (E. coli W3110; Ciprofloxacin 3.125 nM + PMBN 0 µM) was 0.938 and 0.926 and 0.9194, the “checkerboard plate reading, replicate wells” value (E. coli W3110; Ciprofloxacin 3.125 nM + PMBN 0.5 µM) was 0.9104 and 0.8556 and 0.8509 and the “checkerboard plate reading, replicate wells” value (E. coli W3110; Ciprofloxacin 3.125 nM + PMBN 1 µM) was 0.8735 and 0.8204 and 0.8531. For the same molecule, the “checkerboard plate reading, replicate wells” value (E. coli W3110; Ciprofloxacin 3.125 nM + PMBN 2 µM) was 0.8169 and 0.8363 and 0.8177, the “checkerboard plate reading, replicate wells” value (E. coli W3110; Ciprofloxacin 3.125 nM + PMBN 4 µM) was 0.7538 and 0.7307 and the “checkerboard plate reading, replicate wells” value (E. coli W3110; Ciprofloxacin 3.125 nM + PMBN 8 µM) was 0.6785 and 0.6508 and 0.6687. For the same molecule, the “checkerboard plate reading, replicate wells” value (E. coli W3110; Ciprofloxacin 3.125 nM + PMBN 16 µM) was 0.6817 and 1.0386 and 0.7026, the “checkerboard plate reading, replicate wells” value (E. coli W3110; Ciprofloxacin 3.125 nM + PMBN 32 µM) was 0.6673 and 0.6657 and 0.456 and the “checkerboard plate reading, replicate wells” value (E. coli W3110; Ciprofloxacin 6.25 nM + PMBN 0 µM) was 0.8797 and 0.8482 and 0.8545. The “checkerboard plate reading, replicate wells” value (E. coli W3110; Ciprofloxacin 6.25 nM + PMBN 0.5 µM) was 0.8295 and 0.7868 (2×), the “checkerboard plate reading, replicate wells” value (E. coli W3110; Ciprofloxacin 6.25 nM + PMBN 1 µM) was 0.8045 and 0.7855 and 0.8082 and the “checkerboard plate reading, replicate wells” value (E. coli W3110; Ciprofloxacin 6.25 nM + PMBN 2 µM) was 0.8079 and 0.7912 and 0.8017. The “checkerboard plate reading, replicate wells” value (E. coli W3110; Ciprofloxacin 6.25 nM + PMBN 4 µM) was 0.7505 and 0.7264 and 0.7098, the “checkerboard plate reading, replicate wells” value (E. coli W3110; Ciprofloxacin 6.25 nM + PMBN 8 µM) was 0.6878 and 0.6137 and 0.6587 and the “checkerboard plate reading, replicate wells” value (E. coli W3110; Ciprofloxacin 6.25 nM + PMBN 16 µM) was 0.6069 and 0.5772 and 0.5746. For the same molecule, the “checkerboard plate reading, replicate wells” value (E. coli W3110; Ciprofloxacin 6.25 nM + PMBN 32 µM) was 0.5669 and 0.4725 and 0.4204, the “checkerboard plate reading, replicate wells” value (E. coli W3110; Ciprofloxacin 12.5 nM + PMBN 0 µM) was 0.8762 and 0.8322 and 0.8129 and the “checkerboard plate reading, replicate wells” value (E. coli W3110; Ciprofloxacin 12.5 nM + PMBN 0.5 µM) was 0.8025 and 0.7009 and 0.703. For the same molecule, the “checkerboard plate reading, replicate wells” value (E. coli W3110; Ciprofloxacin 12.5 nM + PMBN 1 µM) was 0.7527 and 0.7343 and 0.7035, the “checkerboard plate reading, replicate wells” value (E. coli W3110; Ciprofloxacin 12.5 nM + PMBN 2 µM) was 0.7224 and 0.7157 and 0.731 and the “checkerboard plate reading, replicate wells” value (E. coli W3110; Ciprofloxacin 12.5 nM + PMBN 4 µM) was 0.6942 and 0.6727 and 0.6431. The “checkerboard plate reading, replicate wells” value (E. coli W3110; Ciprofloxacin 12.5 nM + PMBN 8 µM) was 0.5427 and 0.5348 and 0.6272, the “checkerboard plate reading, replicate wells” value (E. coli W3110; Ciprofloxacin 12.5 nM + PMBN 16 µM) was 0.6321 and 0.7181 and 0.676 and the “checkerboard plate reading, replicate wells” value (E. coli W3110; Ciprofloxacin 12.5 nM + PMBN 32 µM) was 0.5556 and 0.461 and 0.4884. For the same molecule, the “checkerboard plate reading, replicate wells” value (E. coli W3110; Ciprofloxacin 25 nM + PMBN 0 µM) was 0.4777 and 0.4961 and 0.4937, the “checkerboard plate reading, replicate wells” value (E. coli W3110; Ciprofloxacin 25 nM + PMBN 0.5 µM) was 0.4579 and 0.5843 and 0.5181 and the “checkerboard plate reading, replicate wells” value (E. coli W3110; Ciprofloxacin 25 nM + PMBN 1 µM) was 0.463 and 0.5493 and 0.476. For the same molecule, the “checkerboard plate reading, replicate wells” value (E. coli W3110; Ciprofloxacin 25 nM + PMBN 2 µM) was 0.4576 and 0.4326 and 0.4258, the “checkerboard plate reading, replicate wells” value (E. coli W3110; Ciprofloxacin 25 nM + PMBN 4 µM) was 0.4811 and 0.4544 and 0.3164 and the “checkerboard plate reading, replicate wells” value (E. coli W3110; Ciprofloxacin 25 nM + PMBN 8 µM) was 0.2629 and 0.2525 and 0.2469. For the same molecule, the “checkerboard plate reading, replicate wells” value (E. coli W3110; Ciprofloxacin 25 nM + PMBN 16 µM) was 0.2049 and 0.1903 and 0.1929, the “checkerboard plate reading, replicate wells” value (E. coli W3110; Ciprofloxacin 25 nM + PMBN 32 µM) was 0.2173 and 0.2055 and 0.208 and the “checkerboard plate reading, replicate wells” value (E. coli W3110; Ciprofloxacin 50 nM + PMBN 0 µM) was 0.2022 and 0.1983 and 0.1968. For the same molecule, the “checkerboard plate reading, replicate wells” value (E. coli W3110; Ciprofloxacin 50 nM + PMBN 0.5 µM) was 0.1996 and 0.2121 (2×), the “checkerboard plate reading, replicate wells” value (E. coli W3110; Ciprofloxacin 50 nM + PMBN 1 µM) was 0.2047 and 0.2226 and 0.2136 and the “checkerboard plate reading, replicate wells” value (E. coli W3110; Ciprofloxacin 50 nM + PMBN 2 µM) was 0.1725 and 0.1735 and 0.1853. For the same molecule, the “checkerboard plate reading, replicate wells” value (E. coli W3110; Ciprofloxacin 50 nM + PMBN 4 µM) was 0.1719 and 0.1646 and 0.167, the “checkerboard plate reading, replicate wells” value (E. coli W3110; Ciprofloxacin 50 nM + PMBN 8 µM) was 0.1715 and 0.1645 and 0.1653 and the “checkerboard plate reading, replicate wells” value (E. coli W3110; Ciprofloxacin 50 nM + PMBN 16 µM) was 0.1641 and 0.1738 and 0.1676. The “checkerboard plate reading, replicate wells” value (E. coli W3110; Ciprofloxacin 50 nM + PMBN 32 µM) was 0.1655 and 0.1715 and 0.1843.
